PubChem BioAssay AID720505 | Drosophila RNAi Screening Center – 2013
In all, the deposit lists about 20,000 reagents; below is an unselected part of those with a known target gene and a result. In the full data, about 2,100 (10%) were called active. 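Raw plate signals without normalisation; calls rest on control-based scores that were not deposited; replicate 2 separates called from uncalled poorly.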 Entries without a mark were called inactive. The numbers tell different reagents against one gene apart. Names joined by + are all predicted targets of the reagent. Not given: the amount of reagent, the time to read-out.

Purpose: 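Genes needed for store-operated calcium entry in fly cells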 (primary screen)
Cells: Drosophila S2R+ cells
Reagent: long dsRNA against Drosophila genes
Conditions: thapsigargin (2 µM) in calcium-free buffer to empty internal stores, then 2 mM calcium added back
Read-out: 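Stores emptied by 2 µM thapsigargin without calcium, then 2 mM calcium re-added; fluo-4 fluorescence followed by FLIPR in 384-well plates, per-well averaged endpoint, raw; two screen passes, some wells retested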
Reading the numbers: calcium signal and retest calcium signal: higher = more calcium entry after store depletion
Call rule: 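About 1500 genes called as lowering calcium entry, by varying amounts, judged against per-plate control wells with STIM1 as positive and Rho1 as negative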
Calls: active = called as lowering calcium entry; inactive = not called

| target | reagent | calcium signal, replicate 1 | calcium signal, replicate 2 | retest calcium signal, replicate 1 | retest calcium signal, replicate 2 |
| --- | --- | --- | --- | --- | --- |
| CG13055 | 1 | 81.5 | 142 | – | – |
| mute (muscle wasted) | 1 | 89.6 | 89.8 | – | – |
| mute (muscle wasted) | 2 | 101 | 159 | – | – |
| Acp63F (Accessory gland protein 63F) | 1 | 137 | 81.6 | – | – |
| ppk27 (pickpocket 27) | 1 | 112 | 136 | – | – |
| ppk27 (pickpocket 27) | 2 | 76.9 | 195 | – | – |
| CG4928 | 1 | 150 | 129 | – | – |
| Pgant8 (Polypeptide N-Acetylgalactosaminyltransferase 8) | 1 | 108 | 158 | – | – |
| CG6788 + CR32496 | 1 | 128 | 210 | – | – |
| Or49b (Odorant receptor 49b) | 1 | 92.8 | 192 | – | – |
| Rtca (RNA 3'-terminal phosphate cyclase) | 1 | 116 | 160 | – | – |
| CG33271 | 1 | 117 | 95.2 | – | – |
| CG1532 | 1 | 195 | 103 | – | – |
| CG1246 | 1 | 96 | 101 | – | – |
| sphinx1 | 1 | 90.3 | 59.8 | – | – |
| dtn (detonator) | 1 | 282 | 78.3 | – | – |
| CG33937 (retired record) | 1 | 41.8 (active) | 96.3 | – | – |
| CG7139 | 1 | 108 | 112 | – | – |
| Cpr78Ca (Cuticular protein 78Ca) | 1 | 61 (active) | 135 | – | – |
| CG4287 | 1 | 145 | 139 | – | – |
| Vps15 (Vacuolar protein sorting 15) | 1 | 146 | 123 | – | – |
| CG9231 | 1 | 114 | 105 | – | – |
| Tsp33B (Tetraspanin 33B) | 1 | 205 | 170 | – | – |
| RpS20 (Ribosomal protein S20) | 1 | 125 (active) | 115 | – | – |
| Urm1 (Ubiquitin-related modifier 1) | 1 | 81.9 | 154 | – | – |
| CG15412 | 1 | 110 | 88.3 | – | – |
| Ir60a (Ionotropic receptor 60a) | 1 | 93.6 | 248 | – | – |
| CG14764 | 1 | 101 | 92 | – | – |
| CG14764 | 2 | 137 | 123 | – | – |
| CG14764 | 3 | 83.1 | 155 | – | – |
| CG4459 | 1 | 146 | 190 | – | – |
| muc (midline uncoordinated) | 1 | 159 | 75.2 | – | – |
| muc (midline uncoordinated) | 2 | 98.6 | 193 | – | – |
| polo | 1 | 109 | 81.3 | 113 | 96.6 |
| polo | 2 | 93.9 | 208 | – | – |
| CG30259 | 1 | 148 | 124 | – | – |
| CG30259 | 2 | 141 | 128 | – | – |
| BBS4 (Bardet-Biedl syndrome 4) | 1 | 117 | 139 | – | – |
| Octbeta2R (Octopamine beta2 receptor) | 1 | 193 | 111 | – | – |
| Octbeta2R (Octopamine beta2 receptor) | 2 | 170 | 98.4 | – | – |
| NPF (neuropeptide F) | 1 | 93.4 | 105 | – | – |
| CG32694 | 1 | 101 | 109 | – | – |
| CG32694 | 2 | 101 | 97 | – | – |
| CG32694 | 3 | 73 | 113 | – | – |

Looked up above:
For “calcium signal, replicate 1”, CG4287 reads 145
Result of muc (midline uncoordinated) #1 under “calcium signal, replicate 2”: 75.2
For “calcium signal, replicate 1”, CG15412 reads 110
ppk27 (pickpocket 27) #2, calcium signal, replicate 1: 76.9
CG4928, calcium signal, replicate 2: 129
CG30259 #2, calcium signal, replicate 2 = 128

More records follow:
| target | reagent | calcium signal, replicate 1 | calcium signal, replicate 2 | retest calcium signal, replicate 1 | retest calcium signal, replicate 2 |
| --- | --- | --- | --- | --- | --- |
| Snx27 (Sorting nexin 27) | 1 | 270 | 177 | – | – |
| Snx27 (Sorting nexin 27) | 2 | 243 | 152 | – | – |
| Snx27 (Sorting nexin 27) | 3 | 201 (active) | 161 | – | – |
| stwl (stonewall) | 1 | 94.5 | 111 | – | – |
| CG12825 | 1 | 55.6 (active) | 60.2 | 56.5 | 94.4 |
| CG13081 | 1 | 176 | 88.7 | – | – |
| CG18508 | 1 | 105 | 131 | – | – |
| ncm (nucampholin) | 1 | 57.8 (active) | 83.5 | – | – |
| CG3748 | 1 | 180 | 128 | – | – |
| Pss (Phosphatidylserine synthase) | 1 | 104 | 170 | – | – |
| CG12521 | 1 | 60.3 | 73.8 | – | – |
| CG11327 | 1 | 104 | 132 | – | – |
| CG34174 | 1 | 83 (active) | 71.8 | – | – |
| Nup50 (Nucleoporin 50kD) | 1 | 194 | 145 | – | – |
| TTLL15 (Tubulin tyrosine ligase-like 15) | 1 | 151 | 89.5 | – | – |
| CG30376 | 1 | 92 | 108 | – | – |
| CG8173 | 1 | 96 | 133 | – | – |
| l(3)psg2 (lethal (3) persistent salivary gland 2) | 1 | 76.1 | 110 | – | – |
| CG1789 | 1 | 110 | 99.1 | – | – |
| CG11686 | 1 | 113 | 156 | – | – |
| scaf6 (SR-related CTD associated factor 6) | 1 | 103 | 113 | – | – |
| scaf6 (SR-related CTD associated factor 6) | 2 | 60.5 | 137 | – | – |
| scaf6 (SR-related CTD associated factor 6) | 3 | 87.1 | 145 | – | – |
| CG13339 | 1 | 134 | 181 | – | – |
| CG4198 | 1 | 147 | 90.3 | – | – |
| CG17841 | 1 | 122 | 102 | – | – |
| CG7166 | 1 | 109 | 210 | – | – |
| CRMP (Collapsin Response Mediator Protein) | 1 | 127 | 112 | – | – |
| salr (spalt-related) | 1 | 231 | 144 | – | – |
| RpL23A (Ribosomal protein L23A) | 1 | 136 | 84.8 | – | – |
| RpL23A (Ribosomal protein L23A) | 2 | 96.7 | 244 | – | – |
| CG4133 | 1 | 126 | 128 | – | – |
| CG4133 | 2 | 88.8 | 159 | – | – |
| Dhit (Double hit) | 1 | 183 | 90.7 | – | – |
| Tango2 (Transport and Golgi organization 2) | 1 | 138 | 136 | – | – |
| Tango2 (Transport and Golgi organization 2) | 2 | 168 | 85.8 | – | – |
| CG12848 | 1 | 173 | 183 | – | – |
| CG7519 | 1 | 103 | 104 | – | – |
| Gr36a (Gustatory receptor 36a) | 1 | 94.1 | 134 | – | – |
